# This is one part of the list. These are further read-outs of the screen, such as a control signal, another cell line or another target. No call is given for them. Most of these compounds were active or inconclusive in the main read-out, so they are no random draw. Potencies come from curve fits of mixed quality, noted in brackets.
# Experiment: qHTS Assay for Lipid Storage Modulators in Drosophila S3 Cells;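 for cell number change: cells counted by Cell Tracker Red CMTPX staining in the red channel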
# Conditions: BODIPY lipid droplet fluorescence, 18-24 h; for cell number change: measured here: cell count max response, cells fed with added oleic acid
# Procedure, shortened: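 Drosophila S3 cells loaded with oleic acid (400 uM, as added) and compounds at several concentrations; lipid droplets imaged by 488-nm laser-scanning cytometry, 500–530 nm intensity and object ratio to cell channel. Percent activity normalized to 20 uM Triacsin C.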
# [1] = measured here: lipid fluorescence (Fed channel) AC50, cells fed with added oleic acid
# [2] = measured here: cell number channel AC50, cells fed with added oleic acid
Compound,cell number change [%],AC50 [1],AC50 [2]
Cc1ccc(C2c3[nH]c4ccccc4c3C[C@H]3C(=O)N(c4ccccc4C(=O)N4CCC(C(=O)O)CC4)C(=O)N23)cc1 (stereo not given in full),5.8,"29.1 µM [rising, single point]",–
CCOc1ccc(CCNC(=O)c2ccc(OCc3c(C)noc3C)cc2)cc1OCC,–,"29.1 µM [falling, single point]",–
CCCc1nnc(NC(=O)CCC(=O)N2CCN(Cc3cc(Cl)ccc3OC)CC2)s1,6.19,"20.6 µM [rising, single point]",–
O=C(Nc1cccnc1)c1cccc(F)c1,-39.5,"0.291 µM [rising, partial curve, poor fit]","29.1 µM [falling, single point]"
COc1cccc(C2=CC(c3cc(OC)ccc3OC)n3nnnc3N2)c1 (stereo not given),-19.4,"0.517 µM [rising, full curve]",–
COC(=O)c1ccccc1NC(=O)CN(c1ccc(C)cc1)S(C)(=O)=O,-0.518,"6.51 µM [rising, single point]",–
O=C(c1ccc(F)cc1)N1CCC(N2CCCCCC2)CC1,-1.46,–,–
CC(=O)c1ccc(NC(=O)COC(=O)c2ccc(F)cc2F)cc1,32.9,"0.13 µM [falling, full curve, poor fit]","0.184 µM [rising, full curve, poor fit]"
COc1ccccc1C(=O)NC(C)c1ccccc1 (stereo not given),–,"2.06 µM [rising, partial curve]","0.0461 µM [rising, full curve, poor fit]"
COc1cc(C(=O)NCc2nnc(SCC(=O)Nc3nccs3)o2)cc(OC)c1OC,–,"6.51 µM [falling, single point]",–
O=C(Nc1nonc1-c1ccc(Cl)cc1)c1ccccc1,34.7,"0.00461 µM [rising, full curve, poor fit]","0.00411 µM [rising, full curve, poor fit]"
CCOC(=O)CCCCC(=O)c1[nH]c(=O)[nH]c1CSc1nnc2c3ccccc3n(C(C)C)c2n1,-25.4,"0.103 µM [rising, full curve, poor fit]",–
O=C(COC(=O)/C=C/c1ccc(Br)o1)NCCCN1CCCC1=O,18.6,"29.1 µM [rising, single point]",–
CCOc1ccc(NC(=O)CSc2nnc(-c3ccncc3)n2CC2CCCO2)cc1 (stereo not given),-3.33,"0.146 µM [rising, full curve, poor fit]",–
COCC(C)NC(=S)NC(=O)c1cc(S(=O)(=O)N2CCOCC2)ccc1C (stereo not given),81.8,"4.61 µM [falling, partial curve]","2.59 µM [falling, single point]"
CCOc1ccc(/C=C2\CCC(C3CCCC3)C2=O)cc1OC (stereo not given),2.13,–,–
Cc1ccc(S(=O)(=O)c2nc(C)oc2NCc2ccccc2)cc1,96.4,–,"20.6 µM [rising, single point]"
O=C(Nc1ccc(Cc2ccncc2)cc1)c1ccc([N+](=O)[O-])o1,-51.1,"16.4 µM [falling, partial curve]","9.2 µM [falling, partial curve]"
Cc1ccc(C)c(NC(=S)NNC(=O)c2csc3c2CCC(C)C3)c1 (stereo not given),-15,"0.731 µM [falling, single point]",–
C=C(C)c1ccc(C(C)(C)NC(=O)NCc2ccco2)cc1,18,"18.4 µM [rising, single point]",–

Compound,cell number change [%],AC50 [1],AC50 [2]
Cc1ccccc1CN1CCN(Cc2ccccc2C(F)(F)F)CC1,-55.8,–,"5.8 µM [falling, full curve]"
O=C(NC(=S)Nc1ccc2nc[nH]c2c1)c1ccccc1,-1.9,–,–
COc1ccc2[nH]c3c(c2c1)CCNC3C1CC=C(C)CC1 (stereo not given),12.6,–,–
CN(C(=S)Nc1ccccc1F)C1(c2ccccc2Cl)CCCCC1=O (stereo not given),-17.2,–,–
CN(C)CCCN(C(=O)COc1ccc(Cl)cc1)c1nc2cc3c(cc2s1)OCCO3,31.5,–,"16.4 µM [rising, single point]"
CCCCc1cc2c(s1)CCCC/C2=N/O,-52.2,"25.9 µM [falling, partial curve, poor fit]","25.9 µM [falling, partial curve, poor fit]"
CN1CCN(C(=O)Cn2c(=O)oc3cc(S(=O)(=O)NCc4ccccc4)ccc32)CC1,-120,–,"25.9 µM [falling, partial curve, poor fit]"
CCOC(=O)CCCNC(=O)CCNC(=O)c1ccc(OCC(C)C)cc1,-7.02,"0.00461 µM [falling, full curve, poor fit]",–
CC1(C)Cc2c(sc3ncn4c(=S)[nH]nc4c23)CO1,2.91,–,"4.61 µM [falling, single point]"
COC(=O)CCSCC(=O)N1N=C(c2ccc(Br)cc2)CC1c1cccc(OC)c1OC (stereo not given),25.1,–,–
O=C(Nc1ccc(F)cc1)C1CCN(S(=O)(=O)c2cccc3nonc23)CC1,-10.3,–,–
Nn1c(SCC(=O)Nc2ccc3c(c2)OCO3)nnc1-c1ccncc1,7.01,–,–
COc1ccccc1NC(=O)CSc1nc2[nH]ncc2c(=O)[nH]1,14.1,–,–
O=C(c1cc(-c2ccccc2)nc2ccccc12)N1N=C(C(F)F)CC1(O)C(F)F (stereo not given),48.6,–,"23.1 µM [rising, single point]"
Cc1cc(C)c(O)c(-c2cc(C(=O)NCCc3ccc(S(N)(=O)=O)cc3)[nH]n2)c1,24.9,"13 µM [rising, partial curve]",–
COc1ccc(CCN2C(=O)c3ccncc3C2=O)cc1OC,9.89,"5.17 µM [rising, single point]",–
Brc1ccc(/C=N/c2nc3ccccc3n2CCN2CCOCC2)cc1,-16.5,"0.731 µM [falling, full curve]","2.31 µM [falling, single point]"
CC(=O)Oc1ccc(N2C(=O)C3C(C2=O)C2(C)C=CC3(C)O2)cc1 (stereo not given),-34.8,"0.92 µM [falling, full curve]","0.651 µM [falling, full curve]"
N#C/C(=C\c1c[nH]c2ccccc12)C(=O)NC1CCCC1,-22.6,"29.1 µM [falling, single point]",–

# Full records, looked up by structure. Order of values: cell number change [%]	AC50 [1]	AC50 [2]
# COc1cc(C(=O)NCc2nnc(SCC(=O)Nc3nccs3)o2)cc(OC)c1OC is listed as –	6.51 µM [falling, single point]	–
# CN(C(=S)Nc1ccccc1F)C1(c2ccccc2Cl)CCCCC1=O (stereo not given) is listed as -17.2	–	–

# Source: PubChem BioAssay AID2685 (National Center for Advancing Translational Sciences (NCATS), 2010)
